Test results reported in paper PMC10024732.
Results are given in words; binding and its absence hold for the method and conditions named. Binding seen in cells or lysates may run through a third protein. Some binding calls cover weakened binding; strength is not graded here.

Amino acid sequences for entries named in this document (tags omitted).
UniProt Q5UAK0: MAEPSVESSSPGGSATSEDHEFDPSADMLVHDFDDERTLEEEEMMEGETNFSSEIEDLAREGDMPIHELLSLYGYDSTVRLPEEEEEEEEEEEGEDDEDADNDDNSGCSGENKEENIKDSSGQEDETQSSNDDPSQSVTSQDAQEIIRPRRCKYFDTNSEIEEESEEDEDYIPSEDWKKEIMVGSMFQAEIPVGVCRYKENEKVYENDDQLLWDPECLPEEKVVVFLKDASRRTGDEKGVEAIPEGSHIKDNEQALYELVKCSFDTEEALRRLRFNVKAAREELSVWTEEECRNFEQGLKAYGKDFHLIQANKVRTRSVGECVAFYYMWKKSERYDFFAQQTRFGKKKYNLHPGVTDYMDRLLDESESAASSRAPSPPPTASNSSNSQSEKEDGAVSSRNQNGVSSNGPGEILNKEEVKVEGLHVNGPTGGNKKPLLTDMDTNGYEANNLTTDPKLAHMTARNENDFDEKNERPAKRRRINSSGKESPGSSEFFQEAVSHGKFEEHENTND
UniProt P70288: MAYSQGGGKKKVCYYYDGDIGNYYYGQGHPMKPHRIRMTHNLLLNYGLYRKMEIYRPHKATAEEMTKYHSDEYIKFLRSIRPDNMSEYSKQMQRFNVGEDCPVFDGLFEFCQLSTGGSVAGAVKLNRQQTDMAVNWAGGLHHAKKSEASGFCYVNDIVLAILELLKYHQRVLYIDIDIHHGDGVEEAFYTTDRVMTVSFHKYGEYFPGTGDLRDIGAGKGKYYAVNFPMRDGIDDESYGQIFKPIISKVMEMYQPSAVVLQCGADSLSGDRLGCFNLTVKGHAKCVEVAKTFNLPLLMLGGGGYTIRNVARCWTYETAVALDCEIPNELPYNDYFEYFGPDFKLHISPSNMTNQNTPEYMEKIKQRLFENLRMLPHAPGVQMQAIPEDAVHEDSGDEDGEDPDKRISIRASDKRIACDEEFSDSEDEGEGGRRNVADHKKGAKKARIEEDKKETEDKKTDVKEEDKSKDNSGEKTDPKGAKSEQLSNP
UniProt O09106: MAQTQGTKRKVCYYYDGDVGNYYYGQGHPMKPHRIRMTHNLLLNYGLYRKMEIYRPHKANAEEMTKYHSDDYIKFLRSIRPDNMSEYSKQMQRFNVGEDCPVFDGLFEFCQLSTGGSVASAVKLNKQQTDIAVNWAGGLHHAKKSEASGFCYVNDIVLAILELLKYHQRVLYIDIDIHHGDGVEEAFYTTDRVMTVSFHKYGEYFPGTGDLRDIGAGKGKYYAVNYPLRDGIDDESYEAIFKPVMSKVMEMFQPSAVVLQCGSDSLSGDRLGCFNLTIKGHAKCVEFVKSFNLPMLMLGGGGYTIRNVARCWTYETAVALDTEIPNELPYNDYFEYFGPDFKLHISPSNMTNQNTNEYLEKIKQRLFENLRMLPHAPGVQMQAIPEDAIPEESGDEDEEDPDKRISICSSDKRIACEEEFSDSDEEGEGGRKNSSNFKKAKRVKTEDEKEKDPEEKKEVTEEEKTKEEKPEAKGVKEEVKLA

Target: MIER1 (mesoderm induction early response protein 1) (UniProt Q5UAK0)
Test: co-IP; endogenous co-immunoprecipitation: MIER1 precipitated overnight at 4 °C from 1000 μg of total protein with anti-MIER1 antibody, protein A/G PLUS-Agarose beads 2 h, washed three times in lysis buffer, SDS-PAGE and immunoblotting; normal rabbit IgG as negative control

| Substance | binding |
| --- | --- |
| histone deacetylase (HDAC) 2 (from UniProt P70288 1-488) | binds |
| histone deacetylase (HDAC) 1 (from UniProt O09106 1-482) | binds |
